PubChem BioAssay AID504791, Drosophila RNAi Screening Center, 2011
The screen tested about 23,000 reagents; shown is an unselected part of those that have a named target and a result. Over the whole deposit, 199 (0.86%) are marked active. 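Plate-scaled ratios behind the calls are not deposited; printed light signals are raw; many rows marked increased or decreased are still called inactive.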 Unmarked entries are inactive. A plus sign joins genes that one reagent is predicted to hit. No sequences are given here. The record does not give: the direction of the score.

Screen: 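Factors in Argonaute-based small RNA production and activity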 (primary screen)
System: Drosophila S2-derived reporter cells
Reagents: long dsRNA against Drosophila genes, about 150-250 ng dsRNA per well (siRNA assay); about 80-120 ng (miRNA assay)
Timing: about 5 days (siRNA assay); about 4 days (miRNA assay)
Conditions: copper sulfate induction of reporters: 25 µM (siRNA assay); 200 mM stated (miRNA assay), 1-2 days before reading
Detection: 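Per-well ratio of Renilla over firefly light, expressed relative to that plate's average ratio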
Units: stable assay Renilla, run 1 in luminescence; stable assay firefly, run 1 in luminescence
Rule for the call: 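a well was a first-pass pick when its plate-scaled ratio rose above 1.5 (siRNA assay) or 1.6 (miRNA assay), or dropped below 0.6; a gene counted only if two separate dsRNAs agreed on retest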

Depletion of CG8136 [DRSC16385] came out at: stable assay Renilla, run 1 = 6423; stable assay firefly, run 1 = 3.32e5.
After knock-down of asRNA:CR42743 + CG34162 [DRSC01190], the screen gave stable assay Renilla, run 1 = 4563; stable assay firefly, run 1 = 3.67e5.
Knock-down of Pepck1 [DRSC07505] came out at: stable assay Renilla, run 1 = 6802; stable assay firefly, run 1 = 3.83e5.
After knock-down of CG15740 [DRSC19706], the record shows stable assay Renilla, run 1 = 4231; stable assay firefly, run 1 = 2.69e5.
With knock-down of CG15740 [DRSC23079], the screen gave stable assay Renilla, run 1 = 5794; stable assay firefly, run 1 = 4.36e5.
CG16787 [DRSC04282] gave stable assay Renilla, run 1 = 4899; stable assay firefly, run 1 = 3.02e5.
With knock-down of Nhe1 [DRSC00762], the screen gave stable assay Renilla, run 1 = 9995; stable assay firefly, run 1 = 4.04e5.
After knock-down of TwdlP [DRSC14734], the record shows stable assay Renilla, run 1 = 6176; stable assay firefly, run 1 = 5.50e5.
After knock-down of Cftr [DRSC15872], the screen gave stable assay Renilla, run 1 = 10801; stable assay firefly, run 1 = 4.04e5.
Silencing of Adf1 [DRSC04941] came out at: stable assay Renilla, run 1 = 5096; stable assay firefly, run 1 = 4.88e5.
Silencing of Adf1 [DRSC04963] came out at: stable assay Renilla, run 1 = 43572; stable assay firefly, run 1 = 9.43e5.
CG13481 [DRSC10023] gave stable assay Renilla, run 1 = 7893; stable assay firefly, run 1 = 4.07e5.
Silencing of dare [DRSC07602] gave: stable assay Renilla, run 1 = 8477; stable assay firefly, run 1 = 5.83e5.
Cyp6a17 [DRSC07378] showed stable assay Renilla, run 1 = 7710; stable assay firefly, run 1 = 4.90e5.
Silencing of Gpa2 [DRSC21071] came out at: stable assay Renilla, run 1 = 6218; stable assay firefly, run 1 = 4.46e5.
After knock-down of CG42288 [DRSC06381], the record shows stable assay Renilla, run 1 = 6371; stable assay firefly, run 1 = 2.90e5.
For CG42296 [DRSC00394], the values are stable assay Renilla, run 1 = 8520; stable assay firefly, run 1 = 4.71e5.
For Spn31A [DRSC02780], the entry reads stable assay Renilla, run 1 = 7244; stable assay firefly, run 1 = 4.48e5.
mRpL2 [DRSC10896] scored stable assay Renilla, run 1 = 4391; stable assay firefly, run 1 = 3.01e5.

Laid out differently: 2 of the entries above.
gene	DRSC id	stable assay Renilla, run 1	stable assay firefly, run 1
Spn31A	DRSC02780	7244	4.48e5
mRpL2	DRSC10896	4391	3.01e5
